PubChem BioAssay AID1671195 | Yale University | 2021
The deposit covers about 22,000 reagents; this is an unselected part. Over the whole deposit, about 1,510 (6.9%) got an active call. 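Active includes knockdowns raising or lowering LDL uptake; positive z-scores mean more uptake, negative mean less.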

Test: 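Genes whose knockdown alters LDL uptake in liver cancer cells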 (primary screen)
Cells: human Huh7 hepatoma cells
Knock-down reagent: siRNA pool against human genes, 18 nM
Duration: about 2 to 2.5 days of knockdown, then 8 h LDL uptake
Treatment: DiI-labelled LDL at 30 µg/ml for 8 h, in lipoprotein-deficient serum medium
Read-out: 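Fluorescent LDL signal imaged in cells, scaled to the plate median, robust z-score for each replicate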
Direction: robust z-score: higher = more LDL uptake after knockdown
Hit rule: 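a gene counts as active if at least two replicate z-scores exceed ±2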

no.	gene symbol	robust z-score, replicate 1	robust z-score, replicate 2	robust z-score, replicate 3	activity call
1	HIC1	0.0232	-0.519	-0.752	inactive
2	NOP10	-1.26	-0.702	0.248	inactive
3	SDHC	1.24	0.615	0.804	inactive
4	DNAJC22	-0.566	0.494	0.316	inactive
5	SELENOH	0.0284	0.339	0.483	inactive
6	MYL10	-0.567	-0.353	-0.834	inactive
7	VSIG2	-1.11	0.285	-2.44	inactive
8	HGD	-0.38	-0.0294	-0.149	inactive
9	NELFA	-0.341	0.645	-0.272	inactive
10	LOC339746 (retired record)	-0.812	-1	-1.06	inactive
11	CAMKMT	-0.881	-0.0931	-0.47	inactive
12	VPS37B	2.07	1.46	1.43	inactive
13	GLRA2	-0.736	0.0674	-0.355	inactive
14	SLC1A5	-0.726	-0.364	-0.346	inactive
15	IGFALS	-1.62	-1.32	-1.63	inactive
16	ANKRD36C	-0.289	-0.573	-0.359	inactive
17	SPTY2D1	0.397	0.99	0.771	inactive
18	NCF4	-0.234	-0.584	-0.684	inactive
19	SSMEM1	0.228	0.115	-0.0895	inactive
20	GRN	-0.0422	0.00428	0.326	inactive
21	RPL13AP23	2.07	2.32	2.1	active
22	LOC440343 (retired record)	0.146	0.544	0.325	inactive
23	PDPR	-0.403	0.399	-0.0979	inactive
24	PGS1	0.273	0.615	-0.109	inactive
25	PYCR2	-0.124	-0.528	0.457	inactive
26	ACE	-0.27	-1.03	-1.4	inactive
27	UHRF2	0.669	0.9	0.181	inactive
28	WDR45B	-0.944	-0.999	-0.753	inactive

Already shown: entries from further up.
no.	gene symbol	robust z-score, replicate 1	robust z-score, replicate 2	robust z-score, replicate 3	activity call
14	SLC1A5	-0.726	-0.364	-0.346	inactive
15	IGFALS	-1.62	-1.32	-1.63	inactive
